One data set concerns the target T7 RNA polymerase (UniProt P00573). Nature of the data set: activity assay. As to conditions: 3' n-propyl block, purified recombinant protein, protein details: Epicentre Technologies, single-stranded DNA.
Another data set has as its target T3 RNA polymerase (UniProt P07659). Nature of the data set: activity assay. As to conditions: 3' n-propyl block, 49% without decoy, purified recombinant protein, protein details: Epicentre Technologies, single-stranded DNA.

Amino acid sequences for entries named in this document (tags omitted). A change or cut given only in a name is not applied to a line headed by its entry.
UniProt P00573: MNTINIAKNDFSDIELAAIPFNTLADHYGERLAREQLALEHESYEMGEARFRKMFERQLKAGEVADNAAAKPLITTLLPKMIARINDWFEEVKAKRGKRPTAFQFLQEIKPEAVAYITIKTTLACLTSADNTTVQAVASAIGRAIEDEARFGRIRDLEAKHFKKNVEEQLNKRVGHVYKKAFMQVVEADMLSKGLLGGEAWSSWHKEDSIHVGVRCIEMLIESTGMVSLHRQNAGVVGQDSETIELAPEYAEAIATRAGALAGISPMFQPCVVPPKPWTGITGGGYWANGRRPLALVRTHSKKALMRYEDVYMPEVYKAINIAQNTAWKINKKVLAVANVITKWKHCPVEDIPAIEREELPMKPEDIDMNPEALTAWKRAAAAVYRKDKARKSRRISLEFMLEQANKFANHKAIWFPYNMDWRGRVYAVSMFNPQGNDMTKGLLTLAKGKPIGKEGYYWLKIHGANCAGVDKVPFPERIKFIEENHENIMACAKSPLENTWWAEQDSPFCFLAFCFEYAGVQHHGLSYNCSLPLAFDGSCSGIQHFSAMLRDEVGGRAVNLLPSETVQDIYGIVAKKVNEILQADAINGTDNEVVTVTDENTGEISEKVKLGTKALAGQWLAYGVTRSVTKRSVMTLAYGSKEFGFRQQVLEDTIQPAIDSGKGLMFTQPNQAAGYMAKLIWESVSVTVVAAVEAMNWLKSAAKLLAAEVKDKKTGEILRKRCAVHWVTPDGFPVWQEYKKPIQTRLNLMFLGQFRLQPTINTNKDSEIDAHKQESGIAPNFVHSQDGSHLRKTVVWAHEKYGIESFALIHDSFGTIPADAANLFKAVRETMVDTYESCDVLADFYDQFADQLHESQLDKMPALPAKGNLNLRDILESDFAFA
UniProt P07659: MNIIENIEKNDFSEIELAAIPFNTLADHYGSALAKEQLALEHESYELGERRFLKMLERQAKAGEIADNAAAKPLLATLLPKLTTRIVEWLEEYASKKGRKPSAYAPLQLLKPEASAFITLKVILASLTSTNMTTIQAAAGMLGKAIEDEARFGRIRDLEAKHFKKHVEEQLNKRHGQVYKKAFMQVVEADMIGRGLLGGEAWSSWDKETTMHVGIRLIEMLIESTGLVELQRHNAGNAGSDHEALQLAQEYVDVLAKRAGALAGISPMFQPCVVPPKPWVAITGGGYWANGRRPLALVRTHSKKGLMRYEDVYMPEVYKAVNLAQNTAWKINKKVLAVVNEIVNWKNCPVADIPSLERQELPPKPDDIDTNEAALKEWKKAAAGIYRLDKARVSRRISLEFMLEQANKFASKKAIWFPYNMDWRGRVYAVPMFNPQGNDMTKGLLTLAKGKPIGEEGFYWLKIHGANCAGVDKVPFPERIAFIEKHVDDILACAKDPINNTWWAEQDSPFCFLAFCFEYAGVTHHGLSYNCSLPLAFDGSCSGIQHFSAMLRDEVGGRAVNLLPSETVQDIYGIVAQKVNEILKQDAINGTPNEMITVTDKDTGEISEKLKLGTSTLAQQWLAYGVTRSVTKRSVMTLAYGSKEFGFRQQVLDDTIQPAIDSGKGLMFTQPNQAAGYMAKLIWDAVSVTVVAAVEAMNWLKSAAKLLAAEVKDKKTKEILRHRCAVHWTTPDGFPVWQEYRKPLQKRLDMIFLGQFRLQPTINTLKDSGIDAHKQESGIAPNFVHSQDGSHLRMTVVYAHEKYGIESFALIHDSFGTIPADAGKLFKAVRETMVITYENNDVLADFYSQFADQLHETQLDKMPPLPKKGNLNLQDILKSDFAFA

This note sets out measurements from patent publication US20020038016.

With “GTACTCAGATGCTGCACTGAAATTATTAACCCTCACTAAAGGGATATAA [decoy probe SEQ 8 (T3 promoter sequence)]”, the activity on this sequence (% positive amplifications) came out at 58 with T7 RNA polymerase (indirect: T7 TAA with RT, 67% without decoy, no enhancement) and 65 with T3 RNA polymerase (indirect: T3 TAA with RT).

For the sequence “GTACTCAGATGCTGTCACTGATCATAATACGACTCACTATAGGGAGATAA [decoy probe SEQ 9 (T7 consensus promoter)]”, the activity on this sequence (% positive amplifications) was found to be 79 with T7 RNA polymerase (indirect: T7 TAA with RT, 67% without decoy) and 73 with T3 RNA polymerase (indirect: T3 TAA with RT). With “GAAATCAATTCGACTCACTAAAGGGATATAA [decoy probe SEQ 13 (truncated SEQ 10)]”, the activity on this sequence (% positive amplifications) with T7 RNA polymerase (indirect: T7 TAA with RT, 59% without decoy) was 69. Turning to “GTACTCAGATGCTGTCACTGATCAGTACTCAGATGCTGTGATGCACTGATCAAA [decoy probe SEQ 14 (random sequence)]”, the activity on this sequence (% positive amplifications) in the data set with T7 RNA polymerase (indirect: random control, 67% without decoy, no enhancement) was found to be 46; with T3 RNA polymerase (indirect: random control, no enhancement) it was 50.
